From publication PMC3843068 come the findings set out here.

The chains behind the UniProt entries cited, without tags or fusion partners.
UniProt Q14160: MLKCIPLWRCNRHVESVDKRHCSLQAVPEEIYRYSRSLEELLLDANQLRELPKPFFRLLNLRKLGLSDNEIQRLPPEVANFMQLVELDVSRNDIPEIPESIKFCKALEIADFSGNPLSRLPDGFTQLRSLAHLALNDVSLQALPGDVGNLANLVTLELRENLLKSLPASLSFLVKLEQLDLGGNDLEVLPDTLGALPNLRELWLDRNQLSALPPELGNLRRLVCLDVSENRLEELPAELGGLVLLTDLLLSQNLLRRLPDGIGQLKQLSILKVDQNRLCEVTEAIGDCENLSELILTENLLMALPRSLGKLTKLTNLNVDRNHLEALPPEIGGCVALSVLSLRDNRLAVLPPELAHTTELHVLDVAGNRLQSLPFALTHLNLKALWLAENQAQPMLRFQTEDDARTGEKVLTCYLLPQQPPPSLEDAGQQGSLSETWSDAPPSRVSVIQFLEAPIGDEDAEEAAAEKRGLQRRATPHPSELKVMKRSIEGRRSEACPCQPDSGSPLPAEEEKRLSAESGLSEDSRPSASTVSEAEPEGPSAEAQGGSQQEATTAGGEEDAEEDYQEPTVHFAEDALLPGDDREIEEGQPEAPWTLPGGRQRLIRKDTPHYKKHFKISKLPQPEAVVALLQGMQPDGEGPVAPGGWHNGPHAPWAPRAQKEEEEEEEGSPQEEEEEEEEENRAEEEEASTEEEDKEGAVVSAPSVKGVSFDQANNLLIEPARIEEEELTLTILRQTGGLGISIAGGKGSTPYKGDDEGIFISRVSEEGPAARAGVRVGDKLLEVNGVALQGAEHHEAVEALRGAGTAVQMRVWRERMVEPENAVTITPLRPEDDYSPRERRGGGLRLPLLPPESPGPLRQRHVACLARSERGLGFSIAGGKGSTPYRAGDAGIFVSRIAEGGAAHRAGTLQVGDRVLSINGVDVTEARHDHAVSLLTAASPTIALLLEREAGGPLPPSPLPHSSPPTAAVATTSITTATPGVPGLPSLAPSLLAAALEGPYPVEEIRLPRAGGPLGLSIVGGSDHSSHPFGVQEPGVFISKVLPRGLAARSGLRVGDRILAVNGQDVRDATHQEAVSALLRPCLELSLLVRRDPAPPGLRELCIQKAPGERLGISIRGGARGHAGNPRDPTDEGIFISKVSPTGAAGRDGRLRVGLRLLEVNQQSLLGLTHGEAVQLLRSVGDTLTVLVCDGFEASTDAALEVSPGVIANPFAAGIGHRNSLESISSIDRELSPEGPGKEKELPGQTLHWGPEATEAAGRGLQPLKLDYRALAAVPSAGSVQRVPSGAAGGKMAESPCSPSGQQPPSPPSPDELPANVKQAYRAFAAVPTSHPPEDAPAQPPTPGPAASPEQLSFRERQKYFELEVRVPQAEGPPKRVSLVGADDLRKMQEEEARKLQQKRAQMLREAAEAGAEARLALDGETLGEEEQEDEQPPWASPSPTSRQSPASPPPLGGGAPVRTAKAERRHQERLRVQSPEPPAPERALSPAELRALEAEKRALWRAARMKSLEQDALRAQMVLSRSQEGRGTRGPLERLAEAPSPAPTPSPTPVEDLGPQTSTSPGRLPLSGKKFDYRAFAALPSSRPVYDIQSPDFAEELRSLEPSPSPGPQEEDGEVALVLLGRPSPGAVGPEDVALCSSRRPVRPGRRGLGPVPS
UniProt Q8TAF3: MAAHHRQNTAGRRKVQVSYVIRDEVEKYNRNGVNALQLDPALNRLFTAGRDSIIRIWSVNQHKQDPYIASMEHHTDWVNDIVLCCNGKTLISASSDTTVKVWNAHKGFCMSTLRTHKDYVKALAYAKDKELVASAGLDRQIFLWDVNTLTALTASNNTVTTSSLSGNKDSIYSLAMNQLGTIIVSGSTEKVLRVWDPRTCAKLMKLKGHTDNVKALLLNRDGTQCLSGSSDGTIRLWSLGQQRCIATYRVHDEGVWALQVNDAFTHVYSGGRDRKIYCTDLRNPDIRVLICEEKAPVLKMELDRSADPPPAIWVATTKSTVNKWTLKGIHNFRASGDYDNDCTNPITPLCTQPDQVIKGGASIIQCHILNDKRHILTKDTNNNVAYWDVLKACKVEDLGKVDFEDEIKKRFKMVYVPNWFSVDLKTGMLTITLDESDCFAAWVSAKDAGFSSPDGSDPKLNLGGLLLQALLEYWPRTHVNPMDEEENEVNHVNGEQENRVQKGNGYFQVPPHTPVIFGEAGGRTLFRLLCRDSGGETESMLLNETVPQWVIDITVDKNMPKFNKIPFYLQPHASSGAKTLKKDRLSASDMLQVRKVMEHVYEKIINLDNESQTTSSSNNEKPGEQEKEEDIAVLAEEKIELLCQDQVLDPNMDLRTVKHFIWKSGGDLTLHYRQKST
UniProt O75317: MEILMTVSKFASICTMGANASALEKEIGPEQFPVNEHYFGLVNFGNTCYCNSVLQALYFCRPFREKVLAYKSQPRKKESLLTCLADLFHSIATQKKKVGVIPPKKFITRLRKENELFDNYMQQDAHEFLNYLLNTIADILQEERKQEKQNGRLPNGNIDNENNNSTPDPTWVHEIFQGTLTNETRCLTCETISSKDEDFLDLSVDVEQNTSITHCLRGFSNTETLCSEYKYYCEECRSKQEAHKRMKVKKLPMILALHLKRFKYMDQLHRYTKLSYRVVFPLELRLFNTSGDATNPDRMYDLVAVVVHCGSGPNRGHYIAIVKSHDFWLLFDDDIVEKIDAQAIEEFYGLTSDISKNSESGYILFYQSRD

No constants are given. Whether binding was seen depends on the method and setting. In cells and extracts the contact can be indirect. A yes stands for co-enrichment or nearness to the bait. Other partners may have been found. Tags and fused reporters may be left off the sequences shown.

Sequences and labels used below:
T1: SFB-triple-tagged PHLPP1 full-length (UniProt O60346)
T1 sequence: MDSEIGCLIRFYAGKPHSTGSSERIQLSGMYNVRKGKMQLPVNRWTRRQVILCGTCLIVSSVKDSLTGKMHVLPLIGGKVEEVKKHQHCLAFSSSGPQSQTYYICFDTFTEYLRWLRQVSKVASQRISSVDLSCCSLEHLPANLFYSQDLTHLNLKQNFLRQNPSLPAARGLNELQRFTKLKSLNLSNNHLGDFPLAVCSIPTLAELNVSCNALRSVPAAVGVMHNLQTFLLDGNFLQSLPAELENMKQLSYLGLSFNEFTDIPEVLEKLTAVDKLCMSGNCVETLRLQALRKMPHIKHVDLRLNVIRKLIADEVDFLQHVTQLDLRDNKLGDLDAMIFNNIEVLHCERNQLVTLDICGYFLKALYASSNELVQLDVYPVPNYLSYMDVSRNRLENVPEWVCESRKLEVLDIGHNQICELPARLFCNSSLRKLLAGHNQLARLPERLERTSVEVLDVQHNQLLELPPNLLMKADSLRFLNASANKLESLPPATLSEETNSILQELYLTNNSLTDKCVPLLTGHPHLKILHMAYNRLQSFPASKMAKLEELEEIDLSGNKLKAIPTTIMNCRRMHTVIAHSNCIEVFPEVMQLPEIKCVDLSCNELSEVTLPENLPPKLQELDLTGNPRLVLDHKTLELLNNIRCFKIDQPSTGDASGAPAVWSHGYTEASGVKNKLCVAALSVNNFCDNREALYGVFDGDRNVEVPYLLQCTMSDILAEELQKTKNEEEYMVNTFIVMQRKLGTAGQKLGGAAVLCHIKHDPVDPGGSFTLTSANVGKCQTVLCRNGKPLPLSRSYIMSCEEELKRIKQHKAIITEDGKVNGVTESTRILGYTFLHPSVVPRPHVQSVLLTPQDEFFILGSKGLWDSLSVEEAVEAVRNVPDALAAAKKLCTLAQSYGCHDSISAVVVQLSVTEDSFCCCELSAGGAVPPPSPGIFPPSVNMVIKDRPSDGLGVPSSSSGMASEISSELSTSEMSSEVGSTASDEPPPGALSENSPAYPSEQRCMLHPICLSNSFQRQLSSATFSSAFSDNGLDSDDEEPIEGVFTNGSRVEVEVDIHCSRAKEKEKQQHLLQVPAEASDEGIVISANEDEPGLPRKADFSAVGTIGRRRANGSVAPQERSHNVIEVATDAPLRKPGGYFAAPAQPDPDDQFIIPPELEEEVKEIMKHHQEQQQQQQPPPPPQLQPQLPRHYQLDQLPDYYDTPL

B1: SUGT1 (protein, UniProt Q9Y2Z0 1-365)
chain: MAAAAAGTATSQRFFQSFSDALIDEDPQAALEELTKALEQKPDDAQYYCQRAYCHILLGNYCVAVADAKKSLELNPNNSTAMLRKGICEYHEKNYAAALETFTEGQKLDIETGFHRVGQAGLQLLTSSDPPALDSQSAGITGADANFSVWIKRCQEAQNGSESEVWTHQSKIKYDWYQTESQVVITLMIKNVQKNDVNVEFSEKELSALVKLPSGEDYNLKLELLHPIIPEQSTFKVLSTKIEIKLKKPEAVRWEKLEGQGDVPTPKQFVADVKNLYPSSSPYTRNWDKLVGEIKEEEKNEKLEGDAALNRLFQQIYSDGSDEVKRAMNKSFMESGGTVLSTNWSDVGKRKVEINPPDDMEWKKY

The target of the test is T1, SFB-triple-tagged PHLPP1 full-length. As to the kind of experiment: affinity purification with mass spectrometry; tandem affinity purification of SFB-PHLPP1 from transfected 293T lysate (NETN buffer: 20 mM Tris-HCl pH 8.0, 100 mM NaCl, 1 mM EDTA, 0.5% Nonidet P-40): streptavidin-Sepharose beads, biotin elution, S-protein-agarose beads, 4 °C; SDS-PAGE and mass spectrometry.
For hScrib (from UniProt Q14160 1-1655), the binding result was “binds”.

“endogenous WDR48 (from UniProt Q8TAF3 1-677)”: the binding entry is listed as “binds”.

“endogenous USP12 (from UniProt O75317 1-370) (enzyme)”: the binding result is listed as “binds”. The result for B1 reads “binds”.
